Experimental data published in PubChem BioAssay AID180 (DTP/NCI, 2004).
The list shows only some results of the screen, not a fair sample: it gathers tests that were run many times, whatever their T/C, doses with no T/C, and many T/C values between a quarter and a half above the control. Further doses and runs are listed elsewhere. T/C: endpoint of the treated group in % of that of the vehicle group. Schedule codes are those of the source, taken here to give the interval after Q, in days (D) or hours (H), and the number of doses after X. Some T/C values carry the count of animals alive at the toxicity check (mostly the fifth day); without a count, all were alive then. Some entries hold several experiments; the values are given in rising order. Additions like (4×) count equal records among those shown. Some entries give survivors of the animals treated and no T/C: the source holds a T/C of zero for them, seemingly a mark for toxic or unscored doses. Counts of survivors are from the toxicity check (mostly the fifth day) where no day follows; animals may have died later.

Tested on: BDF1 mice, Adenocarcinoma 755 s.c., tumor weight T/C
Test: NCI In Vivo Anticancer Drug Screen. Data for tumor model Adenocarcinoma 755 (subcutaneous) in B6D2F1 (BDF1) mice
Conditions: T/C endpoint: mean tumor weight, higher T/C = larger tumour; for T/C: evaluated on day 12
How it was run: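 Transplantable tumor implanted; mice dosed with compound or vehicle; survival or tumor size recorded; ratio of treated to vehicle control reported.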

[1] = dose: 100.0 mg/kg/injection, schedule: Q01DX011 (ip), vehicle: saline
[2] = dose: 300.0 mg/kg/injection, schedule: Q01DX011 (ip), vehicle: methylcellulose (MC)

Q: Which T/C [1] does the source give for `CN(C)C1C(=O)C(C(=O)NCNC(CCS(C)=O)C(=O)O)=C(O)C2(O)C(=O)C3=C(O)c4c(O)cccc4C(C)(O)C3CC12` (configuration not stated) here?
A: 143 % of control

Q: And the survivor count (dose: 400.0 mg/kg/injection, schedule: Q01DX011 (ip), vehicle: saline)?
A: 6 of 10

Q: And the survivor count (dose: 800.0 mg/kg/injection, schedule: Q01DX011 (ip), vehicle: saline)?
A: 0 of 10

Q: Which survivor count (dose: 16.0 mg/kg/injection, schedule: Q01DX011 (ip), vehicle: carboxymethylcellulose (CMC)) does the source give for `Nc1ncnc2c1cnn2CCCl` here?
A: 0 of 10

Q: And the survivor count (dose: 50.0 mg/kg/injection, schedule: Q01DX011 (ip), vehicle: saline)?
A: 0 of 10

Q: What about the survivor count [1] of the same compound?
A: 0 of 10

Q: For `CC(=O)N(C1CCCCC1)C1CCCCC1`, which survivor count (dose: 25.0 mg/kg/injection, schedule: Q01DX011 (ip), vehicle: other) is on record?
A: 1 of 10

Q: How did the survivor count (dose: 75.0 mg/kg/injection, schedule: Q01DX011 (ip), vehicle: carboxymethylcellulose (CMC)) turn out when `CCCNS(=O)(=O)c1ncnc2nc[nH]c12` was run?
A: 2 of 10

Q: How did the survivor count (dose: 15.0 mg/kg/injection, schedule: Q01DX011 (ip), vehicle: methylcellulose (MC)) turn out when `Nc1nc(=S)cc(Nc2ccccc2Cl)[nH]1` was run?
A: 5 of 10

Q: For `OCC1OC(n2cnc3c(=S)nc[nH]c32)C(O)C1O` (configuration not stated), which T/C (dose: 0.15 mg/kg/injection, schedule: Q01DX011 (ip), vehicle: methylcellulose (MC)) is on record?
A: 17 [8 of 10 alive], 36, 38, 39 [8 of 10 alive], 46 [9 of 10 alive], 48, 49, 59, 61 [9 of 10 alive], 79, 84, 89 % of control [9 of 10 alive]

Q: What about the T/C (dose: 0.6 mg/kg/injection, schedule: Q01DX011 (ip), vehicle: methylcellulose (MC)) of the same compound?
A: 29, 32, 33 [8 of 10 alive], 37, 40, 46 [9 of 10 alive], 56, 59, 62, 62 [9 of 10 alive], 70, 72 % of control

Q: What about the T/C (dose: 1.5 mg/kg/injection, schedule: Q01DX011 (ip), vehicle: methylcellulose (MC)) of the same compound?
A: 5 [7 of 10 alive], 12 [7 of 10 alive], 12 [8 of 10 alive], 23 (2×), 24 [8 of 10 alive], 28 [9 of 10 alive], 33, 57 % of control [8 of 10 alive]

Q: What about the T/C (dose: 2.5 mg/kg/injection, schedule: Q01DX011 (ip), vehicle: methylcellulose (MC)) of the same compound?
A: 3 [9 of 10 alive], 5 [9 of 10 alive] (2×), 8 [9 of 10 alive], 10, 11, 14, 15, 16 [9 of 10 alive], 17, 17 [8 of 10 alive], 19 % of control [9 of 10 alive]

Q: What about the T/C (dose: 3.0 mg/kg/injection, schedule: Q01DX011 (ip), vehicle: methylcellulose (MC)) of the same compound?
A: 4 [8 of 10 alive], 5 [8 of 10 alive], 6 [8 of 10 alive], 7, 8 [9 of 10 alive], 11, 21, 28, 35 % of control [9 of 10 alive]

Q: And the T/C (dose: 6.0 mg/kg/injection, schedule: Q01DX011 (ip), vehicle: methylcellulose (MC))?
A: 1 [8 of 10 alive], 1 [9 of 10 alive], 2, 4 [9 of 10 alive], 7 [8 of 10 alive], 8, 8 [8 of 10 alive], 9 [9 of 10 alive], 10 % of control [9 of 10 alive]

Q: And the T/C (dose: 10.0 mg/kg/injection, schedule: Q01DX011 (ip), vehicle: methylcellulose (MC))?
A: 3 (2×), 3 [8 of 10 alive], 3 [9 of 10 alive], 5, 6 (3×), 6 [8 of 10 alive], 8 [9 of 10 alive], 12 % of control

Q: And the T/C (dose: 12.0 mg/kg/injection, schedule: Q01DX011 (ip), vehicle: methylcellulose (MC))?
A: 1, 2, 3, 4 [9 of 10 alive], 5 (2×), 6, 8 [9 of 10 alive], 10 % of control [9 of 10 alive]

Q: What about the T/C (dose: 50.0 mg/kg/injection, schedule: Q01DX011 (ip), vehicle: methylcellulose (MC)) of the same compound?
A: 1, 2 [8 of 10 alive], 3 (2×), 3 [7 of 10 alive], 3 [8 of 10 alive], 4, 5 [9 of 10 alive], 6 % of control

Q: And the survivor count (dose: 80.0 mg/kg/injection, schedule: Q01DX010 (oral), vehicle: saline)?
A: 4 of 10

Q: And the survivor count (dose: 160.0 mg/kg/injection, schedule: Q01DX010 (oral), vehicle: saline)?
A: 0 of 10

Q: What about the survivor count (dose: 160.0 mg/kg/injection, schedule: Q01DX011 (ip), vehicle: alkali diluted with saline) of the same compound?
A: 5 of 10

Q: And the T/C (dose: 200.0 mg/kg/injection, schedule: Q01DX011 (ip), vehicle: methylcellulose (MC))?
A: 1 [9 of 10 alive] (2×), 2 [7 of 10 alive], 2 [8 of 10 alive], 3 [9 of 10 alive], 4 [8 of 10 alive], 5 [7 of 10 alive], 6 [8 of 10 alive], 6 % of control [9 of 10 alive]

Q: What about the survivor count (dose: 300.0 mg/kg/injection, schedule: Q01DX011 (ip), vehicle: carboxymethylcellulose (CMC)) of the same compound?
A: 5 of 10

Q: What about the T/C [2] of the same compound?
A: 1 [8 of 10 alive], 1 [9 of 10 alive] (2×), 3 [8 of 10 alive] (2×), 6 [7 of 10 alive], 7 % of control [7 of 10 alive]

Q: And the survivor count [2]?
A: 4 of 10 and 6 of 10

Q: And the survivor count (dose: 320.0 mg/kg/injection, schedule: Q01DX010 (oral), vehicle: saline)?
A: 0 of 10

Q: What about the survivor count (dose: 350.0 mg/kg/injection, schedule: Q01DX011 (ip), vehicle: carboxymethylcellulose (CMC)) of the same compound?
A: 6 of 10

Q: What about the survivor count (dose: 400.0 mg/kg/injection, schedule: Q01DX011 (ip), vehicle: carboxymethylcellulose (CMC)) of the same compound?
A: 5 of 10

Q: And the survivor count (dose: 480.0 mg/kg/injection, schedule: Q03DX004 (oral), vehicle: alkali diluted with saline)?
A: 5 of 10

Q: And the survivor count (dose: 640.0 mg/kg/injection, schedule: Q01DX001 (ip), vehicle: alkali diluted with saline)?
A: 3 of 10

Q: And the survivor count (dose: 640.0 mg/kg/injection, schedule: Q03DX004 (ip), vehicle: alkali diluted with saline)?
A: 4 of 10

Q: And the survivor count (dose: 960.0 mg/kg/injection, schedule: Q01DX001 (ip), vehicle: alkali diluted with saline)?
A: 2 of 10

Q: For `S=c1nc[nH]c2c1ncn2C1CCCCO1` (configuration not stated), which survivor count (dose: 62.0 mg/kg/injection, schedule: Q01DX011 (ip), vehicle: carboxymethylcellulose (CMC)) is on record?
A: 0 of 10

Q: What about the survivor count (dose: 125.0 mg/kg/injection, schedule: Q01DX011 (ip), vehicle: carboxymethylcellulose (CMC)) of the same compound?
A: 0 of 10

Q: `OCC1OC(n2cnc3c(Cl)ncnc32)C(O)C1O` (configuration not stated) was tested. Which survivor count (dose: 1000.0 mg/kg/injection, schedule: Q01DX011 (ip), vehicle: methylcellulose (MC)) did it give?
A: 6 of 10

Q: What about the survivor count (dose: 1500.0 mg/kg/injection, schedule: Q01DX011 (ip), vehicle: methylcellulose (MC)) of the same compound?
A: 3 of 10

Q: How did the T/C (dose: 36.25 mg/kg/injection, schedule: Q01DX011 (oral), vehicle: carboxymethylcellulose (CMC)) turn out when `O=c1[nH]cnc2c1ncn2C1CCCC1` was run?
A: 130 % of control

Q: What about the T/C (dose: 72.5 mg/kg/injection, schedule: Q01DX011 (oral), vehicle: carboxymethylcellulose (CMC)) of the same compound?
A: 143 % of control [9 of 10 alive]

Q: What about the T/C (dose: 145.0 mg/kg/injection, schedule: Q01DX011 (oral), vehicle: carboxymethylcellulose (CMC)) of the same compound?
A: 127 % of control [8 of 10 alive]

Q: What about the T/C (dose: 290.0 mg/kg/injection, schedule: Q01DX011 (oral), vehicle: carboxymethylcellulose (CMC)) of the same compound?
A: 145 % of control [9 of 10 alive]

Q: What about the survivor count (dose: 450.0 mg/kg/injection, schedule: Q01DX001 (ip), vehicle: carboxymethylcellulose (CMC)) of the same compound?
A: 5 of 10

Q: `CCCCN(C)N=Nc1ccc(C(N)=O)cc1` was tested. Which survivor count (dose: 100.0 mg/kg/injection, schedule: Q01DX011 (ip), vehicle: carboxymethylcellulose (CMC)) did it give?
A: 6 of 10

Q: For `Nc1nc(SCc2ccccc2)c2ncn(Cc3ccccc3)c2n1`, which survivor count (dose: 500.0 mg/kg/injection, schedule: Q01DX011 (ip), vehicle: methylcellulose (MC)) is on record?
A: 3 of 10

Q: With `Cn1c(Cl)nc2nc(Cl)nc(Cl)c21` as the compound, how does the survivor count (dose: 15.0 mg/kg/injection, schedule: Q01DX011 (ip), vehicle: carboxymethylcellulose (CMC)) read?
A: 6 of 10

Q: And the survivor count (dose: 30.0 mg/kg/injection, schedule: Q01DX011 (ip), vehicle: carboxymethylcellulose (CMC))?
A: 0 of 10

Q: What about the survivor count (dose: 60.0 mg/kg/injection, schedule: Q01DX011 (ip), vehicle: carboxymethylcellulose (CMC)) of the same compound?
A: 0 of 10

Q: And the survivor count (dose: 120.0 mg/kg/injection, schedule: Q01DX011 (ip), vehicle: carboxymethylcellulose (CMC))?
A: 0 of 10

Q: And the survivor count (dose: 240.0 mg/kg/injection, schedule: Q01DX011 (ip), vehicle: carboxymethylcellulose (CMC))?
A: 0 of 10

Q: With `CC(=O)OCC(=O)[C@@]1(O)CC[C@H]2[C@@H]3C[C@H](C)C4=CC(=O)C=C[C@]4(C)[C@@]3(F)[C@@H](O)C[C@@]21C` as the compound, how does the survivor count (dose: 18.0 mg/kg/injection, schedule: Q01DX011 (sc), vehicle: steroid suspending solution) read?
A: 5 of 10

Q: And the survivor count (dose: 40.0 mg/kg/injection, schedule: Q01DX011 (sc), vehicle: steroid suspending solution)?
A: 3 of 12

Q: And the survivor count (dose: 80.0 mg/kg/injection, schedule: Q01DX011 (sc), vehicle: steroid suspending solution)?
A: 2 of 12

Q: And the survivor count (dose: 150.0 mg/kg/injection, schedule: Q01DX011 (sc), vehicle: steroid suspending solution)?
A: 4 of 10
